Data from PMC11127964.
Results are given in words; binding and its absence hold for the method and conditions named. Some entries that bind do so weakly or less than the wild type. Sequences can lack the tags named with a protein.

The chains behind the UniProt entries cited, without tags or fusion partners.
UniProt A8MS85: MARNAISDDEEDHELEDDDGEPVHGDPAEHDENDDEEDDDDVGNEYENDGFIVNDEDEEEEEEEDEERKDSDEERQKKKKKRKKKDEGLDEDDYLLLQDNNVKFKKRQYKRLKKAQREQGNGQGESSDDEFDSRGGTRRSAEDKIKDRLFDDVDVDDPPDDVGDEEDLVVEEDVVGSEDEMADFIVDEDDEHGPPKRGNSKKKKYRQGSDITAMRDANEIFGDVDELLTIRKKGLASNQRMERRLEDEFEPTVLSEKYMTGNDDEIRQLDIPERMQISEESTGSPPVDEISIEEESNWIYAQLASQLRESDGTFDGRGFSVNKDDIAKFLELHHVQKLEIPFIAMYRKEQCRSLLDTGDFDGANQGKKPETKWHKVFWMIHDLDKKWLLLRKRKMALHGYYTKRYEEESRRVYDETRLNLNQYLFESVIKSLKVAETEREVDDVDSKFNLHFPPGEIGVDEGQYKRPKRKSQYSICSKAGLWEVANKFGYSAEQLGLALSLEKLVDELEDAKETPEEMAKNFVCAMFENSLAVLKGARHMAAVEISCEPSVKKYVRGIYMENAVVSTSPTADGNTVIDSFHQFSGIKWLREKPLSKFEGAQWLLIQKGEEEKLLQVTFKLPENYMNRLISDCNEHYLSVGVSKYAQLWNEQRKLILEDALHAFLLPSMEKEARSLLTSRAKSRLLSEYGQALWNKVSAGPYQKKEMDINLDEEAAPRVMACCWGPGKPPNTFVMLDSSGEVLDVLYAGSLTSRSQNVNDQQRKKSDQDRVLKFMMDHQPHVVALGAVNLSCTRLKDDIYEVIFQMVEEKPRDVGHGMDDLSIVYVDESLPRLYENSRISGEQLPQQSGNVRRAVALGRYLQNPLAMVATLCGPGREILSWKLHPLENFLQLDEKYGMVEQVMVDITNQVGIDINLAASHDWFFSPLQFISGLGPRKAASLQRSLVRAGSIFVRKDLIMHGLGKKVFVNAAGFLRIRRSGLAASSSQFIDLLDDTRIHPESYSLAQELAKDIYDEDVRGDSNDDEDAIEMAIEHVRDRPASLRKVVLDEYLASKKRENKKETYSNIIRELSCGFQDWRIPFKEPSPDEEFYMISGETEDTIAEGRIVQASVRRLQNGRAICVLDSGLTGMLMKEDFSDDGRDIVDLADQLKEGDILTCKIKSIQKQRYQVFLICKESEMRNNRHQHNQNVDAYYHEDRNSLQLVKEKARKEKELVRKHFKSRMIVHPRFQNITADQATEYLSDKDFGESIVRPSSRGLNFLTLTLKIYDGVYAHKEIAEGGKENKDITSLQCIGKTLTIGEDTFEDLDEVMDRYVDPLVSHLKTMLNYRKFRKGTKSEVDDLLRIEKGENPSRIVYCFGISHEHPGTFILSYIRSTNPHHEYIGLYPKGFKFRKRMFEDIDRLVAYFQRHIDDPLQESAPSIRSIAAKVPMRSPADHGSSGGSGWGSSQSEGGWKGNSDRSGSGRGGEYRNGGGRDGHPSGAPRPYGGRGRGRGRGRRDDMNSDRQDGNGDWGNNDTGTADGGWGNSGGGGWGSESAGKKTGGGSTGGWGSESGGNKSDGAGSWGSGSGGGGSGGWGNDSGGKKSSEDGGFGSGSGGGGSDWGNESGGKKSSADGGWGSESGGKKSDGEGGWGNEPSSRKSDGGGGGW

Biological target: SPT6L (SPT6-like), yeast two-hybrid bait in pGBKT7 (Arabidopsis) (UniProt A8MS85)
Test: two-hybrid; bait SPT6L in pGBKT7, preys in pGADT7, co-transformed into yeast AH109; growth on -Leu/-Trp/-His medium with 10 mM 3-AT

B1: NRP(D/E)4, Pol IV and V shared subunit, yeast two-hybrid prey in pGADT7 (protein, UniProt Q6DBA5 1-205)
chain: MSEKGGKGLKSSLKSKDGGKDGSSTKLKKGRKIHFDQRTPPANYKILNVSSDQQPFQSSAAKCGKSDKPTKSSKNSLHSFELKDLPENAECMMDCEAFQILDGIKGQLVGLSEDPSIKIPVSYDRALAYVESCVHYTNPQSVRKVLEPLKTYGISDGEMCVIANASSESVDEVLAFIPSLKTKKEVINQPLQDALEELSKLKKSE
  binding: binds

B2: SPT5L, yeast two-hybrid fusion (protein, UniProt F4JW79 1-1493)
chain: MDRKGKGKQVAGSDSYSGGQKRKNSVEFRDEGLRIKKRKNPEVLQFFEESAEVGYYGGSSDEDDDGLGFLNDMEDEPEVEESSKAGKGEKGKSSFVFPKEEDLNEEEFDRIMEERYKPGSGFLRYADDDIKDAIEMDALAPTSKDPPIWKVKCAIGRERRSVFCLMHKFVELRKIGTKLEIISVFSVDHVKGFIFIEADKEHDVLEACKSLVGIYATRMVLLPKAETPNLLTVQKKTKKVSEGTWARVKNGKYKGDLAQIVAVSDTRNKALIKLIPRIDIQALTQKYGGGVTVQKGQTPAPRLISSSELEEFRPLIQVRRDRDTGITFEHLDSLMLKDGYLYKKVSLDSISSWGVIPTKDELLKFTPVDRKETGDVEWISEIYGEERKKKILPTCREGGKGEGSGGGKGEGSGGGKGEGSRGGKGEGSSDFKSESSYELYNLVCFSRKDFGLIVGVDDKGDGYKVLKEGIDGPVVVTVGKKEMQNGPFDSKFTALDLNKKQISVNDVVKISKGPSEGKQGVVRQVYRGIIFLYDESEEENGGYFCCKSQSCEKVKLFTEESNEKTGGFDGTAFEDFVSSPKSPLSPEKEWQPRERYNSSNQGDIGSTYSIGQKLRIRVGPLKGYLCRVIALRYSDVTVKLDSQHKIFTVKSEHLAEVRDRNTVLSTSGDAGTGSFQPFGMLGTESSTGDWAIGAGTSSEGGNWNIGGPSTDSHESLNIERNMVQLCREKNPWGGSKPTSDVSPTVADDNTSAWANAAAENKPASASDQPGGWNPWGKTPASEAGTVSGWGDTSASNVEASSWEKQGASTSNVADLGSWGTHGGSSGGNKQDEDSVWGKLCEASESSQKKEESSWGKKGGSDGESSWGNKDGNSSASKKDGVSWGQQDKGSDESKGGSAWSNQCGDFGSGKKKDGSSGWNKSAEDSNANSKGVPDWGQPNDGSSWGKKGDGAASWGKKDDGGSWGKKDDGNKDDGGSSWGKKDDGQKDDGGSSWEKKFDGGSSWGKKDDGGSSWGKKDDGGSLWGKKDDGGSSWGKEDDGGSLWGKKDDGESSWGKKDDGESSWGKKDDGGSSWGKKDEGGYSEQTFDRGGRGFGGRRGGGRRGGRDQFGRGSSFGNSEDPAPWSKPSGGSSWGKQDGDGGGSSWGKENDAGGGSSWGKQDNGVGSSWGKQNDGSGGGSSWGKQNDAGGGSSWGKQDSGGDGSSWGKQDGGGDSGSAWGKQNNTSGGSSWGKQSDAGGGSSWGKQDGGGGGSSWGKQDGGGGSGSAWGKQNETSNGSSWGKQNDSGGGSSWGKQDGGGGGSSWGKQNDGGGGSSWGKQGDGGSKPWNEHSGGGRGFGERRGGGGFRGGRNQSGRGGRSFDGGRSSSWKTDNQENTWKSDQSGGSDWKKGWGEDSNNSKPSGSSAGGCAGNWPSWDTNSKKETNDKPGDDSKSAWGTSNDQVNTDNNNDSWNKKPNNDVGTSGEADNAWGGKTNAVAPSPSGSAAWGTGDKKTGW
  binding: binds
